These are yes or no findings as the source states them, for the method shown. For part of these data: A result given as binding can be weak or reduced; the word gives no strength.
T1: rat FOXM1 amino acids 337 to 437 (two-hybrid bait) (rat) (UniProt P97691)
T1 sequence: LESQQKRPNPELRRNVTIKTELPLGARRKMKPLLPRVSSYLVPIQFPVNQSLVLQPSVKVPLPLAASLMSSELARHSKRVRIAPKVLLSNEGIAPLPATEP

The chains behind the UniProt entries cited, without tags or fusion partners. Where a name states a change or a piece, a line headed by the entry shows the natural chain unless it says otherwise.
UniProt Q12929: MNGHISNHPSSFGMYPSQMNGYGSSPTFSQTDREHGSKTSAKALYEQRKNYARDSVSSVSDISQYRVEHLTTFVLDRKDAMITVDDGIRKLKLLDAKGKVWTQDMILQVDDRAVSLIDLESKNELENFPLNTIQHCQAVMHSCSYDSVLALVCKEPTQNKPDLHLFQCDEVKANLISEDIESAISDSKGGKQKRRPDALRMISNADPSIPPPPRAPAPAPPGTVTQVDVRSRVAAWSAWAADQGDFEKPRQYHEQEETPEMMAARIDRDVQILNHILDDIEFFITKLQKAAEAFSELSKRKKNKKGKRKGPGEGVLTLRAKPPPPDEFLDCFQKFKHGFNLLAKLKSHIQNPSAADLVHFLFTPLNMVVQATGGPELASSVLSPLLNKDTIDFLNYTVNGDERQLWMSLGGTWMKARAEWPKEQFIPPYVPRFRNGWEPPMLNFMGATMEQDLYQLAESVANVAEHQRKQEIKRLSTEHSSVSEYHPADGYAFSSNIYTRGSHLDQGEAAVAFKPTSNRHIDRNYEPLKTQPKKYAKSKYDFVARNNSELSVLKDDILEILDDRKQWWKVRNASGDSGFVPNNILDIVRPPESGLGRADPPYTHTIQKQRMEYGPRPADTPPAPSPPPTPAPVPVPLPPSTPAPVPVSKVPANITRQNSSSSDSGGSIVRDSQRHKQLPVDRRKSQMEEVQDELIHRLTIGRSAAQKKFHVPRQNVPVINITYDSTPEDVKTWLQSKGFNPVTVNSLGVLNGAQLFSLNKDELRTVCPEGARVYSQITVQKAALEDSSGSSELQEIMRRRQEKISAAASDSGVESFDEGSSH

B1: full-length human FOXM1c (Gal4 two-hybrid prey) (protein, UniProt Q08050-1 1-763)
chain: MKTSPRRPLILKRRRLPLPVQNAPSETSEEEPKRSPAQQESNQAEASKEVAESNSCKFPAGIKIINHPTMPNTQVVAIPNNANIHSIITALTAKGKESGSSGPNKFILISCGGAPTQPPGLRPQTQTSYDAKRTEVTLETLGPKPAARDVNLPRPPGALCEQKRETCADGEAAGCTINNSLSNIQWLRKMSSDGLGSRSIKQEMEEKENCHLEQRQVKVEEPSRPSASWQNSVSERPPYSYMAMIQFAINSTERKRMTLKDIYTWIEDHFPYFKHIAKPGWKNSIRHNLSLHDMFVRETSANGKVSFWTIHPSANRYLTLDQVFKPLDPGSPQLPEHLESQQKRPNPELRRNMTIKTELPLGARRKMKPLLPRVSSYLVPIQFPVNQSLVLQPSVKVPLPLAASLMSSELARHSKRVRIAPKVLLAEEGIAPLSSAGPGKEEKLLFGEGFSPLLPVQTIKEEEIQPGEEMPHLARPIKVESPPLEEWPSPAPSFKEESSHSWEDSSQSPTPRPKKSYSGLRSPTRCVSEMLVIQHRERRERSRSRRKQHLLPPCVDEPELLFSEGPSTSRWAAELPFPADSSDPASQLSYSQEVGGPFKTPIKETLPISSTPSKSVLPRTPESWRLTPPAKVGGLDFSPVQTSQGASDPLPDPLGLMDLSTTPLQSAPPLESPQRLLSSEPLDLISVPFGNSSPSDIDVPKPGSPEPQVSGLAANRSLTEGLVLDTMNDSLSKILLDISFPGLDEDPLGPDNINWSQFIPELQ

Experiments:
[1] = target: T1, rat FOXM1 amino acids 337 to 437 (two-hybrid bait) (rat); experiment: two-hybrid; LexA-based yeast two-hybrid screen of an insulinoma cDNA library with rat FOXM1 337-437 as bait
[2] = target: EPS8-ΔNt-ΔSH3 (Gal4 two-hybrid bait) (human) (UniProt Q12929); experiment: two-hybrid; Gal4-based Matchmaker system (Clontech); EPS8 constructs as bait in pGBT9, full-length FOXM1 as prey in pGAD424; growth on SC medium lacking leucine, tryptophan and histidine
[3] = target: EPS8-ΔSH3 (Gal4 two-hybrid bait) (human) (UniProt Q12929); experiment: as above

| Molecule | binding [1] | binding [2] | binding [3] |
| --- | --- | --- | --- |
| EPS8 isolated from an insulinoma cDNA library (two-hybrid prey) | binds |  |  |
| B1 |  | no binding | binds |
